Data: the supplement of paper PMC10849652
Some of the results follow.

Protein sequences, listed by entry. Tags and fused reporters are not part of them. Lines headed by an entry give the natural chain unless they say otherwise; changes in a name come on top.
UniProt Q6VEQ5: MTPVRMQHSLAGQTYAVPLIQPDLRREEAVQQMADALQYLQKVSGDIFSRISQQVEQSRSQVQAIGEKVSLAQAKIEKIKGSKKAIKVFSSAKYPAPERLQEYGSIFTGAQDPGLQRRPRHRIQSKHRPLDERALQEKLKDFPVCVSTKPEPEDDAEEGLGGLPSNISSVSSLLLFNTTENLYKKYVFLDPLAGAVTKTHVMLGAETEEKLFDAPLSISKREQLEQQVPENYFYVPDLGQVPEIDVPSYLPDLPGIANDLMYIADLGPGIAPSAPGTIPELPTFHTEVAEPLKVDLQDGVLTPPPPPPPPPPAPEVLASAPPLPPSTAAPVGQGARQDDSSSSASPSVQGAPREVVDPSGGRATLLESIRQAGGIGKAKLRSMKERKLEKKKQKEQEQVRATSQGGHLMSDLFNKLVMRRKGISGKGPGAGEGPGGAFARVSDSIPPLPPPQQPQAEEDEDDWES
UniProt Q6UXN9, whole entry, looked up: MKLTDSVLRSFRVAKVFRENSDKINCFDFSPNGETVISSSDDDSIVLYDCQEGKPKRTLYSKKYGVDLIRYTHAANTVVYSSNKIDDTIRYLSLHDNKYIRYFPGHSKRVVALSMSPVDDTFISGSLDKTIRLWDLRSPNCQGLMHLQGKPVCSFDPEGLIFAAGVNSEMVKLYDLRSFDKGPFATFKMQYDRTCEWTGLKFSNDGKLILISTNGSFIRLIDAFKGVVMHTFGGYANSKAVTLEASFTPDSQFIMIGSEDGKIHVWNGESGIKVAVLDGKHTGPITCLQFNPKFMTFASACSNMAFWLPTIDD
UniProt Q7Z5K2: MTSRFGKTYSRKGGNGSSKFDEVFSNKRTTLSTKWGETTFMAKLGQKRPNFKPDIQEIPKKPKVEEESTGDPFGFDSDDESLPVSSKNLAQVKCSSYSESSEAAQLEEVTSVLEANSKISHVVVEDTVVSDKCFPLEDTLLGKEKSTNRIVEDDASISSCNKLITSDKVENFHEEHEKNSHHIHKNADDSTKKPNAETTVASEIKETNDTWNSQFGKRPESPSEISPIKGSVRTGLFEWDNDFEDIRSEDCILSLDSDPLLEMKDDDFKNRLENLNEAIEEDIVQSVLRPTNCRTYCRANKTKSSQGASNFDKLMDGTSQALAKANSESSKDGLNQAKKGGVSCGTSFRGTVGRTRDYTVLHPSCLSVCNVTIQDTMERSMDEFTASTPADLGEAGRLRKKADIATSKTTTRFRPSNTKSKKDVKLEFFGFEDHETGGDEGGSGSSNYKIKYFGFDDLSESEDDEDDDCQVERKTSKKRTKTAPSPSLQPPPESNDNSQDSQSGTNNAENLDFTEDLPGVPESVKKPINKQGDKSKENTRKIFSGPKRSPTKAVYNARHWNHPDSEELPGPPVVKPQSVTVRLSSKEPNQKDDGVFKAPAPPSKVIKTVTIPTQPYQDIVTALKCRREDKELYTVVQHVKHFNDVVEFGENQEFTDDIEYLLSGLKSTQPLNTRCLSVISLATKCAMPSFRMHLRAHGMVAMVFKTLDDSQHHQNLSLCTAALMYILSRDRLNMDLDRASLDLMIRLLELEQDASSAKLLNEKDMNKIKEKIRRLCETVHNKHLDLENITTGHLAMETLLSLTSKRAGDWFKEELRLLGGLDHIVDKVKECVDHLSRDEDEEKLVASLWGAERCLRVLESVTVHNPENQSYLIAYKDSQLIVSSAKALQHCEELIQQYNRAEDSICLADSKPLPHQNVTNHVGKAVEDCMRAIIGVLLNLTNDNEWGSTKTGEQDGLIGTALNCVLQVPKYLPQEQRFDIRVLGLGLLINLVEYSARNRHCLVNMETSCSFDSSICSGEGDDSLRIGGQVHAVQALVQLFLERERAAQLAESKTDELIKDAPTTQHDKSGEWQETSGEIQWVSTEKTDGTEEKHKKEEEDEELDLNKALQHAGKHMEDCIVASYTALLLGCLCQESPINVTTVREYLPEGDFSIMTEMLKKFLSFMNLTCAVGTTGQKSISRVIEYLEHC
UniProt Q9H270: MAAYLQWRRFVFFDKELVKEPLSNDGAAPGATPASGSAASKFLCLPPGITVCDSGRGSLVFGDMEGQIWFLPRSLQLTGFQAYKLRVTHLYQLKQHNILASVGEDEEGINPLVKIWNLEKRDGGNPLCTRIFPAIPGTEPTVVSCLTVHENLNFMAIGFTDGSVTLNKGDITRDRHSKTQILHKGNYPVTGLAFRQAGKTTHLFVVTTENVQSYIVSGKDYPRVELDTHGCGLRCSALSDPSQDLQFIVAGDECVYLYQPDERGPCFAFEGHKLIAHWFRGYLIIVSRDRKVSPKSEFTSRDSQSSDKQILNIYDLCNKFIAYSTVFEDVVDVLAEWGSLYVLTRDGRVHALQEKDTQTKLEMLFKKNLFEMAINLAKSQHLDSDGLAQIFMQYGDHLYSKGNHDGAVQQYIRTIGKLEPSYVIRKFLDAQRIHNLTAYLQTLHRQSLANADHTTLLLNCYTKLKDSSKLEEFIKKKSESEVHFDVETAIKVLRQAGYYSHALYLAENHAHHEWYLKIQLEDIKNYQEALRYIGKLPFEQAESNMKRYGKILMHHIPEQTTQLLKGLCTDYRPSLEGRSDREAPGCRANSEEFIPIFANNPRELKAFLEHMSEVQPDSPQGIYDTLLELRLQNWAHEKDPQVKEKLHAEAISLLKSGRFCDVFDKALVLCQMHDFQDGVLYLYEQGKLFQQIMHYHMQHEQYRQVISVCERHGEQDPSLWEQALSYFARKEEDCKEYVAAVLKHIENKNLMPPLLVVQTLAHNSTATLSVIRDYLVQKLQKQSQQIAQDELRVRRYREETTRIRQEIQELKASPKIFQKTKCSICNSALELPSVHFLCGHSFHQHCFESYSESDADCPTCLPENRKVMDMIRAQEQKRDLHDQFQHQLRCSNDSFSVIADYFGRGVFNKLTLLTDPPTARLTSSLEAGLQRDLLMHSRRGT
UniProt Q9UNX4: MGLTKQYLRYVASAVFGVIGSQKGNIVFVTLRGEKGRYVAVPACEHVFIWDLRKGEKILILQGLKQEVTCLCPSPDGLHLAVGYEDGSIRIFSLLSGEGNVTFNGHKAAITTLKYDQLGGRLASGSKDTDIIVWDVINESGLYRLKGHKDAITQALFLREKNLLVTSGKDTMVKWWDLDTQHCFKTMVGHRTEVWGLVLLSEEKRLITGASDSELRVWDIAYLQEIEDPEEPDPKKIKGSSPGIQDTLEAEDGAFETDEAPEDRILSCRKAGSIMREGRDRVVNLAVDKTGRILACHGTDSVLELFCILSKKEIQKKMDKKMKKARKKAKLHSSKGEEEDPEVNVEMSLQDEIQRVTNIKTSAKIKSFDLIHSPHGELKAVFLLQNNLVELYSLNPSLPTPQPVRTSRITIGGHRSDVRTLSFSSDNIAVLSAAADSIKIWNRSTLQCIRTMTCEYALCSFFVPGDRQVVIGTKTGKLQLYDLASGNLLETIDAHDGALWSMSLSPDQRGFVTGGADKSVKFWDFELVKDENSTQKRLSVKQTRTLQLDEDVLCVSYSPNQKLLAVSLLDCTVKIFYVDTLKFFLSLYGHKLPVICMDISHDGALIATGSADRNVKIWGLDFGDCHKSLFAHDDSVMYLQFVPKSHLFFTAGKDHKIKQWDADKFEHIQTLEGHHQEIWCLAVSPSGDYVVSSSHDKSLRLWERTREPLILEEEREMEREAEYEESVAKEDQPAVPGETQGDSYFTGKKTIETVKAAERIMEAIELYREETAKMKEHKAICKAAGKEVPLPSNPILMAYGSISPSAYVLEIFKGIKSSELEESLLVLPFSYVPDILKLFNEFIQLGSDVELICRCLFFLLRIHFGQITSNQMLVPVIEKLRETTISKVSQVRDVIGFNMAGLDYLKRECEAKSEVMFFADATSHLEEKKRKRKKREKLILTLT
UniProt Q8N2E2: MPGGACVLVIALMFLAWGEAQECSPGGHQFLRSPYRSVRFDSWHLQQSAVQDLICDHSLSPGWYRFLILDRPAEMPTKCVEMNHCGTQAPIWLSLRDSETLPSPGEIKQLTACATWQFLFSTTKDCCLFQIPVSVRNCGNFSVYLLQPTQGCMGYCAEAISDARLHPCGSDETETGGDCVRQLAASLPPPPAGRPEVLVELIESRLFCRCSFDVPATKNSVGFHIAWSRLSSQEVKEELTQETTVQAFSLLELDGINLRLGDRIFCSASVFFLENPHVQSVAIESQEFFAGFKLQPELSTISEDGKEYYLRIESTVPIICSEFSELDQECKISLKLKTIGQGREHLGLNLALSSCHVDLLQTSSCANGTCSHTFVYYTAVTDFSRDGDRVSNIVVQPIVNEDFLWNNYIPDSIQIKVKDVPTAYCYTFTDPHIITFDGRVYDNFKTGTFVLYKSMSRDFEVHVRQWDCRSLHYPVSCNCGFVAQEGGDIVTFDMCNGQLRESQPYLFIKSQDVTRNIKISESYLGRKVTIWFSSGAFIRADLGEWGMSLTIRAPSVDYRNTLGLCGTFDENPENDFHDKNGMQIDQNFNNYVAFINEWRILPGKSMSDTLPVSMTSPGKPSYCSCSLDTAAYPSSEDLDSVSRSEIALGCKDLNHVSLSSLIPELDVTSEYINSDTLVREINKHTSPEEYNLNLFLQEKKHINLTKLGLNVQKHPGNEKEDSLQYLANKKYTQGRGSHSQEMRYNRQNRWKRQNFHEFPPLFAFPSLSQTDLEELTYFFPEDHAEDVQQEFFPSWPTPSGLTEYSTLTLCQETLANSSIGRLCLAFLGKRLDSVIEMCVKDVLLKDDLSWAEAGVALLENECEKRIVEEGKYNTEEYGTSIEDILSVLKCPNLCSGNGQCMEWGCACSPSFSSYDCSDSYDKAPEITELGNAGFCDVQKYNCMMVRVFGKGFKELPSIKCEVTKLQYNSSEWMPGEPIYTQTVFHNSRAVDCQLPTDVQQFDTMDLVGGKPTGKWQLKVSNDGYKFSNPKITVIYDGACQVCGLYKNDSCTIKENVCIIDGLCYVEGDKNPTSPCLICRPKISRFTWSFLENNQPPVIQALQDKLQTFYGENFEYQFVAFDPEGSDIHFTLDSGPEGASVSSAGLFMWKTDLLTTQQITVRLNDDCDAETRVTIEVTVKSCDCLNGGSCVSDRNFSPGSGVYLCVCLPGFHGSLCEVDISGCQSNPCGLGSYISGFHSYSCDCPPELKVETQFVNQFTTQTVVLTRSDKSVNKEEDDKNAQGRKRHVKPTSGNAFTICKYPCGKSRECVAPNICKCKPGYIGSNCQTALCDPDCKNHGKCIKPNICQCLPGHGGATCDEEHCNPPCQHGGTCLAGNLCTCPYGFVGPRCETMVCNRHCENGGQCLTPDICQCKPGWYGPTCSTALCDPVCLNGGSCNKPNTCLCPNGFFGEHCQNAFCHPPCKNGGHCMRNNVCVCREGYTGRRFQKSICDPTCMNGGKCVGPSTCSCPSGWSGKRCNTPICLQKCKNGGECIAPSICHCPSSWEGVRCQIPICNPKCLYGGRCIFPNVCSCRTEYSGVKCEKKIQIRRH
UniProt Q9Y3C0: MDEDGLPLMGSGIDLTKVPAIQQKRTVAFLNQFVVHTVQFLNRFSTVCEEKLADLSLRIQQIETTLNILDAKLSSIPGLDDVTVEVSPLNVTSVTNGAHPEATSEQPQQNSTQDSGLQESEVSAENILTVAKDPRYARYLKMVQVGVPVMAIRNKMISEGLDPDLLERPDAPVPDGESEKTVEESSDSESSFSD
UniProt Q9H267: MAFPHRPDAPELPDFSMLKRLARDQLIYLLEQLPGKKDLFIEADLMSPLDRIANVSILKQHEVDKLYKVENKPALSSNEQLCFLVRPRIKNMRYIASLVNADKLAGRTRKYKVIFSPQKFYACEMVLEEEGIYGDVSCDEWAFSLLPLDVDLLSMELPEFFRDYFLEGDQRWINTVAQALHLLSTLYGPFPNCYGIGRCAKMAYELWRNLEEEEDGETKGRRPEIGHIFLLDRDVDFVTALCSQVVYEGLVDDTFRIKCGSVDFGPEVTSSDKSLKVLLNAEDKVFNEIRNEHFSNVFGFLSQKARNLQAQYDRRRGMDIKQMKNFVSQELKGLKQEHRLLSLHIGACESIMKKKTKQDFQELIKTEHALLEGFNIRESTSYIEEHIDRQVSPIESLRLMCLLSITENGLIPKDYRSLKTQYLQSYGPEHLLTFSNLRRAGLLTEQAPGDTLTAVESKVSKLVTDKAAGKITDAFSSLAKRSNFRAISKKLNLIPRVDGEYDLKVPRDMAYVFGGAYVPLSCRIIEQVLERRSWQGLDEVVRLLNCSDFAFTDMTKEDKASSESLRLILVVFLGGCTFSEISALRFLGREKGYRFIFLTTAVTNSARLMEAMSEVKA

Tests used:
Assay in all cases: log2 fold change, soluble protein after heating vs DMSO (PISA); higher = thermal stabilisation; K562 lysate, 10 uM; active = over 0.2 and 3.5 SD of the protein, either way, in both replicates (recomputed)
erlotinib = compound: C#Cc1cccc(Nc2ncnc3cc(OCCOC)c(OCCOC)cc23)c1 [erlotinib]
How it was run: (§1)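 Values give the log-two fold change in thermal stability against solvent controls, from duplicates. Crude K562 extract at 1 mg/mL protein, made by dounce homogenisation in PBS pH 7.4 with 1 mM MgCl2, was treated with 10 μM compound for 30 min. After 3 min heating across 48°C-58°C, aliquots were pooled, adjusted to 0.5% NP-40 at 4°C and centrifuged at 21,000xg for 90 min. The supernatant was measured by TMTpro 16plex LC-MS/MS with channel sums equalised.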

[1] = compound: C/C(=N\NC(=O)C1=CC(=CC=C1)S(=O)(=O)N2CCOCC2)/C3=C(C=CC(=C3)Cl)O
How it was run: as §1

[2] = compound: C1=CC(=CC=C1C2=NC3=C(N2)C=C(C=C3)C(=O)N)OC4=CC=C(C=C4)Cl
How it was run: as §1

[3] = compound: C1=CC2=C(C=CC(=C2)/C=C\3/C(=O)NC(=NCC4=CC=CS4)S3)N=C1
How it was run: as §1

[4] = compound: C1=CC2=NC=CN=C2C=C1/C=C/3\C(=O)NC(=O)S3
How it was run: as §1

[5] = compound: C1=CC=C(C=C1)C2=NC(=C(N2)C3=CC=NC=C3)C4=CC(=C(C=C4)Cl)O
How it was run: as §1

[6] = compound: C1=CC=C2C(=C1)C3=NNC4=CC=CC(=C43)C2=O
How it was run: as §1

[7] = compound: C1CCN(C1)C(=O)NC2=CC=CC(=C2)NC3=NC=C(C(=N3)NCCC4=CN=CN4)Br
How it was run: as §1

[8] = compound: C1CN(CCC1(CC2=CC=C(C=C2)Cl)N)C3=NC=NC4=C3C=CN4
How it was run: as §1

IRAK-1-4 Inhibitor I = compound: C1COCCN1CCN2C3=CC=CC=C3N=C2NC(=O)C4=CC(=CC=C4)[N+](=O)[O-] [IRAK-1-4 Inhibitor I]
How it was run: as §1

Measured: log2 fold change

VPS18 (UniProt Q9P253)
inactive: erlotinib 0.018 | [1] 0.056 | [2] -0.032 | [3] -0.021 | [4] -0.016 | [5] 0.051 | [6] -0.076 | [7] -0.017 | [8] 0.053 | IRAK-1-4 Inhibitor I -0.034

WASH2P (UniProt Q6VEQ5)
inactive: erlotinib 0.008 | [1] 0.045 | [2] -0.02 | [3] -0.026 | [4] 0.026 | [5] 0.019 | [6] 0.026 | [7] 0.001 | [8] -0.014 | IRAK-1-4 Inhibitor I -0.031

WASF1 (UniProt Q92558)
inactive: erlotinib 0.032 | [1] -0.025 | [2] 0.107 | [3] -0.025 | [4] -0.061 | [5] -0.017 | [6] -0.021 | [7] -0.09 | [8] 0.019 | IRAK-1-4 Inhibitor I 0.013

WDR82 (UniProt Q6UXN9)
inactive: erlotinib -0.015 | [1] 0.009 | [2] 0.004 | [3] -0.004 | [4] 0.026 | [5] -0.007 | [6] 0.043 | [7] -0.001 | [8] 0.024 | IRAK-1-4 Inhibitor I -0.009

WIZ isoform 3 (UniProt O95785)
inactive: erlotinib -0.007 | [1] -0.02 | [2] 0.046 | [3] -0.011 | [4] -0.085 | [5] -0.005 | [6] -0.001 | [7] -0.003 | [8] 0.029 | IRAK-1-4 Inhibitor I 0.002

WDR37 isoform 2 (UniProt Q9Y2I8)
inactive: erlotinib 0.024 | [1] 0.082 | [2] -0.033 | [3] 0.001 | [4] -0.045 | [5] 0.018 | [6] 0.014 | [7] -0.056 | [8] -0.028 | IRAK-1-4 Inhibitor I 0.003

WDR55 (UniProt Q9H6Y2)
inactive: erlotinib -0.004 | [1] -0.15 | [2] -0.017 | [3] -0.008 | [4] -0.008 | [5] 0.019 | [6] 0.002 | [7] -0.022 | [8] 0.004 | IRAK-1-4 Inhibitor I -0.039

VPS4A (UniProt Q9UN37)
inactive: erlotinib 0.051 | [1] 0.005 | [2] -0.076 | [3] 0.043 | [4] -0.014 | [5] -0.017 | [6] -0.15 | [7] 0.029 | [8] -0.037 | IRAK-1-4 Inhibitor I -0.037

WAPL isoform 3 (UniProt Q7Z5K2)
inactive: erlotinib 0.009 | [1] -0.019 | [2] 0.004 | [3] 0.014 | [4] -0.014 | [5] 0.021 | [6] 0.005 | [7] -0.02 | [8] -0.03 | IRAK-1-4 Inhibitor I -0.002

VPS11 (UniProt Q9H270)
inactive: erlotinib 0.049 | [1] -0.037 | [2] 0.014 | [3] 0.034 | [4] 0.014 | [5] 0.011 | [6] -0.053 | [7] 0.003 | [8] -0.002 | IRAK-1-4 Inhibitor I -0.031

WRAP53 (UniProt Q9BUR4)
inactive: erlotinib -0.026 | [1] 0.075 | [2] -0.022 | [3] -0.011 | [4] 0.012 | [5] 0.053 | [6] 0.007 | [7] 0.067 | [8] 0.124 | IRAK-1-4 Inhibitor I 0

WNK4 (UniProt Q96J92)
inactive: erlotinib 0.149 | [1] -0.022 | [2] -0.132 | [3] 0.014 | [4] -0.024 | [5] 0.013 | [6] -0.023 | [7] -0.017 | [8] 0.016 | IRAK-1-4 Inhibitor I 0.048

XAB2 (UniProt Q9HCS7)
inactive: erlotinib 0.049 | [1] -0.088 | [2] -0.012 | [3] 0.076 | [4] 0.093 | [5] 0.012 | [6] -0.041 | [7] 0.071 | [8] -0.014 | IRAK-1-4 Inhibitor I 0.004

VPS13D (UniProt Q5THJ4)
inactive: erlotinib 0.051 | [1] 0.037 | [2] -0.043 | [3] -0.019 | [4] 0.031 | [5] -0.046 | [6] 0.006 | [7] -0.023 | [8] -0.026 | IRAK-1-4 Inhibitor I 0.063

WDR75 (UniProt Q8IWA0)
inactive: erlotinib 0.021 | [1] 0.034 | [2] -0.049 | [3] 0.048 | [4] 0 | [5] -0.03 | [6] -0.115 | [7] 0.02 | [8] -0.041 | IRAK-1-4 Inhibitor I 0.017

WDR3 (UniProt Q9UNX4)
inactive: erlotinib -0.036 | [1] -0.013 | [2] -0.044 | [3] -0.012 | [4] 0.027 | [5] -0.015 | [6] 0.026 | [7] 0.007 | [8] -0.04 | IRAK-1-4 Inhibitor I -0.02

VWDE (UniProt Q8N2E2)
inactive: erlotinib 0.104 | [1] 0.001 | [2] 0.031 | [3] -0.002 | [4] -0.038 | [5] -0.013 | [6] -0.048 | [7] -0.048 | [8] 0.027 | IRAK-1-4 Inhibitor I 0.02

VPS45 (UniProt Q9NRW7)
inactive: erlotinib -0.005 | [1] 0.385 | [2] 0.034 | [3] 0.022 | [4] -0.033 | [5] -0.011 | [6] -0.018 | [7] 0.008 | [8] -0.057 | IRAK-1-4 Inhibitor I -0.022

VKORC1L1, A0A3B3ISV4
inactive: erlotinib 0.065 | [1] -0.121 | [2] -0.057 | [3] 0.022 | [4] 0.043 | [5] -0.018 | [6] 0.084 | [7] -0.02 | [8] -0.041 | IRAK-1-4 Inhibitor I 0.051

VPS13B (UniProt Q7Z7G8)
inactive: erlotinib 0.109 | [1] 0.056 | [2] -0.056 | [3] 0.067 | [4] 0.106 | [5] -0.066 | [6] -0.137 | [7] -0.115 | [8] 0.027 | IRAK-1-4 Inhibitor I -0.076

VPS26C (UniProt O14972)
inactive: erlotinib 0.01 | [1] 0.046 | [2] 0 | [3] 0.015 | [4] -0.026 | [5] -0.004 | [6] -0.015 | [7] 0.032 | [8] 0.114 | IRAK-1-4 Inhibitor I 0.048

WASHC3 (UniProt Q9Y3C0)
inactive: erlotinib -0.017 | [1] -0.033 | [2] 0.012 | [3] -0.051 | [4] 0.02 | [5] 0.042 | [6] 0.091 | [7] 0.054 | [8] 0.097 | IRAK-1-4 Inhibitor I 0.067

VPS37C (UniProt A5D8V6)
inactive: erlotinib -0.06 | [1] -0.012 | [2] -0.024 | [3] 0.084 | [4] -0.056 | [5] -0.063 | [6] 0 | [7] -0.059 | [8] 0.068 | IRAK-1-4 Inhibitor I 0.083

WIPF3 (UniProt A6NGB9)
inactive: erlotinib -0.018 | [1] 0.09 | [2] 0.016 | [3] -0.001 | [4] -0.029 | [5] -0.007 | [6] 0.007 | [7] 0.052 | [8] 0.097 | IRAK-1-4 Inhibitor I -0.012

XIAP (UniProt P98170)
inactive: erlotinib 0.02 | [1] -0.016 | [2] -0.039 | [3] 0.042 | [4] 0.025 | [5] 0.03 | [6] -0.014 | [7] -0.001 | [8] 0.025 | IRAK-1-4 Inhibitor I 0.046

WDR24 (UniProt Q96S15)
inactive: erlotinib 0.023 | [1] 0.014 | [2] 0.029 | [3] -0.042 | [4] -0.018 | [5] 0.058 | [6] -0.012 | [7] -0.034 | [8] -0.007 | IRAK-1-4 Inhibitor I 0.034

Taken from above (9 entries):
VWDE (UniProt Q8N2E2)
inactive: erlotinib 0.104 | [1] 0.001 | [2] 0.031 | [3] -0.002 | [4] -0.038 | [5] -0.013 | [6] -0.048 | [7] -0.048 | [8] 0.027 | IRAK-1-4 Inhibitor I 0.02

VPS45 (UniProt Q9NRW7)
inactive: erlotinib -0.005 | [1] 0.385 | [2] 0.034 | [3] 0.022 | [4] -0.033 | [5] -0.011 | [6] -0.018 | [7] 0.008 | [8] -0.057 | IRAK-1-4 Inhibitor I -0.022

VKORC1L1, A0A3B3ISV4
inactive: erlotinib 0.065 | [1] -0.121 | [2] -0.057 | [3] 0.022 | [4] 0.043 | [5] -0.018 | [6] 0.084 | [7] -0.02 | [8] -0.041 | IRAK-1-4 Inhibitor I 0.051

VPS13B (UniProt Q7Z7G8)
inactive: erlotinib 0.109 | [1] 0.056 | [2] -0.056 | [3] 0.067 | [4] 0.106 | [5] -0.066 | [6] -0.137 | [7] -0.115 | [8] 0.027 | IRAK-1-4 Inhibitor I -0.076

VPS26C (UniProt O14972)
inactive: erlotinib 0.01 | [1] 0.046 | [2] 0 | [3] 0.015 | [4] -0.026 | [5] -0.004 | [6] -0.015 | [7] 0.032 | [8] 0.114 | IRAK-1-4 Inhibitor I 0.048

WASHC3 (UniProt Q9Y3C0)
inactive: erlotinib -0.017 | [1] -0.033 | [2] 0.012 | [3] -0.051 | [4] 0.02 | [5] 0.042 | [6] 0.091 | [7] 0.054 | [8] 0.097 | IRAK-1-4 Inhibitor I 0.067

VPS37C (UniProt A5D8V6)
inactive: erlotinib -0.06 | [1] -0.012 | [2] -0.024 | [3] 0.084 | [4] -0.056 | [5] -0.063 | [6] 0 | [7] -0.059 | [8] 0.068 | IRAK-1-4 Inhibitor I 0.083

WIPF3 (UniProt A6NGB9)
inactive: erlotinib -0.018 | [1] 0.09 | [2] 0.016 | [3] -0.001 | [4] -0.029 | [5] -0.007 | [6] 0.007 | [7] 0.052 | [8] 0.097 | IRAK-1-4 Inhibitor I -0.012

XIAP (UniProt P98170)
inactive: erlotinib 0.02 | [1] -0.016 | [2] -0.039 | [3] 0.042 | [4] 0.025 | [5] 0.03 | [6] -0.014 | [7] -0.001 | [8] 0.025 | IRAK-1-4 Inhibitor I 0.046

Later entries.

WDR7 (UniProt Q9Y4E6)
inactive: erlotinib 0.05 | [1] -0.076 | [2] -0.016 | [3] -0.059 | [4] -0.001 | [5] -0.005 | [6] -0.038 | [7] 0.018 | [8] 0.042 | IRAK-1-4 Inhibitor I 0.01

VPS33B (UniProt Q9H267)
inactive: erlotinib 0.015 | [1] -0.021 | [2] 0.004 | [3] 0.023 | [4] -0.003 | [5] -0.01 | [6] 0.005 | [7] 0.006 | [8] -0.002 | IRAK-1-4 Inhibitor I -0.031

VPS36 (UniProt Q86VN1)
inactive: erlotinib -0.014 | [1] 0.008 | [2] 0.017 | [3] 0.004 | [4] -0.02 | [5] -0.006 | [6] -0.011 | [7] 0 | [8] -0.018 | IRAK-1-4 Inhibitor I 0.023

WDCP (UniProt Q9H6R7)
inactive: erlotinib -0.06 | [1] 0.091 | [2] 0.079 | [3] 0.018 | [4] 0.024 | [5] 0 | [6] -0.011 | [7] -0.022 | [8] 0.002 | IRAK-1-4 Inhibitor I 0.024
